Measurements as given in PMC8144581.
These are yes or no findings as the source states them, for the method shown. A result given as binding can be weak or reduced; the word gives no strength.

Target: T1, SPM1 (T. gondii) (UniProt S8F1Y1)
T1 sequence: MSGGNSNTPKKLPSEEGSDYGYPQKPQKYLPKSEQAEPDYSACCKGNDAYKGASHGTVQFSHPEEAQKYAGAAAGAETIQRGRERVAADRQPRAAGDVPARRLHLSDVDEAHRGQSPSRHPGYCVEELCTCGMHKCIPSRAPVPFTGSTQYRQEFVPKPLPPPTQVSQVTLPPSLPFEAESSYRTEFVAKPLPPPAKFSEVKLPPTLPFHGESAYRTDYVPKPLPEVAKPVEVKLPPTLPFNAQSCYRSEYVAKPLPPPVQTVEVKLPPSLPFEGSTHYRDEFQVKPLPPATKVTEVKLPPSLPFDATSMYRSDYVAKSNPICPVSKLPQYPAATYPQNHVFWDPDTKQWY
Test: cryo-EM structure; ex vivo cortical MTs in cholic acid extracted T. gondii parasites, not separated from the IMC; single-particle analysis with 8-nm periodicity; overall 4.0 Å, sub-regions of two protofilaments around 3.4 Å; focused 3D classification for TrxL2 bound and unbound at sites x and y

TrxL1 (T. gondii)
binding: binds

TrxL2 (T. gondii)
binding: binds
